# Measurements as given in the supplement of paper PMC10849652.
# By UniProt entry, the sequences of proteins in these tests, tags left out. Where a name states a change or a piece, a line headed by the entry shows the natural chain unless it says otherwise.
# UniProt Q14469: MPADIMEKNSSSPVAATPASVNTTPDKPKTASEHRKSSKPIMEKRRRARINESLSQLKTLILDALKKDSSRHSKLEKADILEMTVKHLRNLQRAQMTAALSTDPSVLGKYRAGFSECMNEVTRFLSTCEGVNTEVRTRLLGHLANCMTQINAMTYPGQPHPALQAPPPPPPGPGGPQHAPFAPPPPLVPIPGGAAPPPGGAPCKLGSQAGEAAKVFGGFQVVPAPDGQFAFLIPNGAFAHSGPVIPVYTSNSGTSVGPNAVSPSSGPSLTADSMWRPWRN
# UniProt Q9NQG7: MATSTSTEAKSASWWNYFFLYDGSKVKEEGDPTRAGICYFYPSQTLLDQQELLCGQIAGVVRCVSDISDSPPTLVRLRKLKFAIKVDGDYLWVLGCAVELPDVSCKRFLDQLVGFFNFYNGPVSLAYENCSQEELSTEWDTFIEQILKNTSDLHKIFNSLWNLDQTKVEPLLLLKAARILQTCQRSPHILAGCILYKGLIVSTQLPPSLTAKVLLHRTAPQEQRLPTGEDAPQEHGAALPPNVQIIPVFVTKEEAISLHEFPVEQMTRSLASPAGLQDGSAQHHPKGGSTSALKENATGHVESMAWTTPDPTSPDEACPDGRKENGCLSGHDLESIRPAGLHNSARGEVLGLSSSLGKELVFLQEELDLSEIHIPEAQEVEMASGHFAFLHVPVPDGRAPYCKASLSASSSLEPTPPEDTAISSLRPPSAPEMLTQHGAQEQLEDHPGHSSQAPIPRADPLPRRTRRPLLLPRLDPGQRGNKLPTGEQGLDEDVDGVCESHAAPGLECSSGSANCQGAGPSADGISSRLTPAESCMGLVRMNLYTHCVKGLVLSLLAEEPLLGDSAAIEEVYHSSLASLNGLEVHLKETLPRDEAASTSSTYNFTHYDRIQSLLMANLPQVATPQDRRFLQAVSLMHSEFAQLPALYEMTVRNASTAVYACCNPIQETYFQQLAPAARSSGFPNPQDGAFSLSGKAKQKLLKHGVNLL
# UniProt Q8IX15: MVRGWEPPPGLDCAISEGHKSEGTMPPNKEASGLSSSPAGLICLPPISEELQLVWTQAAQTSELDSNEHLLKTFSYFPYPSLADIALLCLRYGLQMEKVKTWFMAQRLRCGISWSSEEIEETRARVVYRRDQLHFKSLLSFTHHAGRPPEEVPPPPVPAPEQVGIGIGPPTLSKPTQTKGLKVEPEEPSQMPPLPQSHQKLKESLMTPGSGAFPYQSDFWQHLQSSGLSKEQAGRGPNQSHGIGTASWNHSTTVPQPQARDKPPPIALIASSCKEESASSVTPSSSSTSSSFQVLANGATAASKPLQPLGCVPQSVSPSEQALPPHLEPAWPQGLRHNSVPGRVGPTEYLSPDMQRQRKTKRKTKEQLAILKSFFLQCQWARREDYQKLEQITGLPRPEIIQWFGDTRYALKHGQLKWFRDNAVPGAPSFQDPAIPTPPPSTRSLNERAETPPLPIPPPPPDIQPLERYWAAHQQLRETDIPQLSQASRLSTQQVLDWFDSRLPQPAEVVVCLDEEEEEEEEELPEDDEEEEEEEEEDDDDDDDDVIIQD
# UniProt Q8IWL3: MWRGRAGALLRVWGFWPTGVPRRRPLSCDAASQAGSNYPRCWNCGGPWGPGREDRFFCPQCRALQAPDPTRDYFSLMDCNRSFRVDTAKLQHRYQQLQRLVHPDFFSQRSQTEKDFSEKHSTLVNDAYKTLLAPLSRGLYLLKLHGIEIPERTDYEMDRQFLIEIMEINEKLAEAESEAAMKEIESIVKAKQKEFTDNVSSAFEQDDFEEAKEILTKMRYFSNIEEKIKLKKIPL
# UniProt P54198, whole entry, looked up: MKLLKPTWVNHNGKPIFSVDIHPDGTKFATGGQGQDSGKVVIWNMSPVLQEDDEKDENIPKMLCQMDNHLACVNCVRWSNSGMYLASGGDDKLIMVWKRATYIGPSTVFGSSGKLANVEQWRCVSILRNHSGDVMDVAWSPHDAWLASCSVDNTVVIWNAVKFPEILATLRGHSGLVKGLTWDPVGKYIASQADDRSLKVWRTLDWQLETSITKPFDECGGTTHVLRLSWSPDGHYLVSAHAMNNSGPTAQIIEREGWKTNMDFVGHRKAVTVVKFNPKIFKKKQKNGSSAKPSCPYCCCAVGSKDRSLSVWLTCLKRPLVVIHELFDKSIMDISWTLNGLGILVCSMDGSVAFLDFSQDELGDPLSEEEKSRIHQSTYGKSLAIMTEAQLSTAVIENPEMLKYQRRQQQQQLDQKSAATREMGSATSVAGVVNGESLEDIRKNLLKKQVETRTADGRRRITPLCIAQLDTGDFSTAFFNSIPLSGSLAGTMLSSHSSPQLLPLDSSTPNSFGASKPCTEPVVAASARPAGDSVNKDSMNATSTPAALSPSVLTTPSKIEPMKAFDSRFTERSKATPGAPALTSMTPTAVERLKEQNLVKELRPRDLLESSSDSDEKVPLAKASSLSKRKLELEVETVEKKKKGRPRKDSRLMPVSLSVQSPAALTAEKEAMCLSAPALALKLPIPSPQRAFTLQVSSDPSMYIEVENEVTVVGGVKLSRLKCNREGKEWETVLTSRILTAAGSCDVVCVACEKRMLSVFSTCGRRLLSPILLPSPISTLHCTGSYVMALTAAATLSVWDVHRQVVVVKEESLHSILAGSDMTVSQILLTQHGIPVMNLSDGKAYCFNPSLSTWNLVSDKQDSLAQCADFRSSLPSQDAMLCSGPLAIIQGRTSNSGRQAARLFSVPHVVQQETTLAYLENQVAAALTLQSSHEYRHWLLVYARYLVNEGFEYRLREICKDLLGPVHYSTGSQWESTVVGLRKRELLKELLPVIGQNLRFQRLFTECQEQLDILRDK
# UniProt O14979: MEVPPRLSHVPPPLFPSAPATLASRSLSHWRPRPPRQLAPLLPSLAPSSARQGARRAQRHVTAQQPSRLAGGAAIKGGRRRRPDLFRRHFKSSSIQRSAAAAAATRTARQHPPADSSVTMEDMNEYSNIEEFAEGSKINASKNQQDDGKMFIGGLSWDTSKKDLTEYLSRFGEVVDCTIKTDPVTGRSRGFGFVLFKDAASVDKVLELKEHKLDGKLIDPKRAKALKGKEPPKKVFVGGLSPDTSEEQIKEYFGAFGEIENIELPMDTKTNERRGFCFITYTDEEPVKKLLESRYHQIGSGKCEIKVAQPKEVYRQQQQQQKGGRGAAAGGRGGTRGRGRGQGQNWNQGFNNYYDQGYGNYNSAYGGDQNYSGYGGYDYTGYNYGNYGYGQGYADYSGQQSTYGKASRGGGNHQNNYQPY
# UniProt P00492: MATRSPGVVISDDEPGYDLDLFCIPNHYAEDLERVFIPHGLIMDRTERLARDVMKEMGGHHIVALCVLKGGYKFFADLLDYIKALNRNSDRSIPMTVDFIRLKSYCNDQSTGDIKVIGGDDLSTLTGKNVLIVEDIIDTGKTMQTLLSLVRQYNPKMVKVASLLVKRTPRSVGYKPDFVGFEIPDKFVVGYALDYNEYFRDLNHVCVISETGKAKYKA
# UniProt Q9NSC5: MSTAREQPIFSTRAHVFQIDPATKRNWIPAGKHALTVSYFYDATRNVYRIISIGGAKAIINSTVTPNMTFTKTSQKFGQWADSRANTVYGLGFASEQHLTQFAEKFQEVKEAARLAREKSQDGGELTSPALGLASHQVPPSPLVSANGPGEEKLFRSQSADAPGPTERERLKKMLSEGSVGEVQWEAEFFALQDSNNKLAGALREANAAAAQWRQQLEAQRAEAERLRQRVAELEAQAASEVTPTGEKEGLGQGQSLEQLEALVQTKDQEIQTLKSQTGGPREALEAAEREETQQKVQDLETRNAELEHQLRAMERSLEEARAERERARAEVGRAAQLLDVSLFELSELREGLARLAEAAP
# UniProt Q15651: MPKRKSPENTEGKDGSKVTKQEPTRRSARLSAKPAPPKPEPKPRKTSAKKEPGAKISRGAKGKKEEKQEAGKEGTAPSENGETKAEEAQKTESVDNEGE
# UniProt Q9UPZ3: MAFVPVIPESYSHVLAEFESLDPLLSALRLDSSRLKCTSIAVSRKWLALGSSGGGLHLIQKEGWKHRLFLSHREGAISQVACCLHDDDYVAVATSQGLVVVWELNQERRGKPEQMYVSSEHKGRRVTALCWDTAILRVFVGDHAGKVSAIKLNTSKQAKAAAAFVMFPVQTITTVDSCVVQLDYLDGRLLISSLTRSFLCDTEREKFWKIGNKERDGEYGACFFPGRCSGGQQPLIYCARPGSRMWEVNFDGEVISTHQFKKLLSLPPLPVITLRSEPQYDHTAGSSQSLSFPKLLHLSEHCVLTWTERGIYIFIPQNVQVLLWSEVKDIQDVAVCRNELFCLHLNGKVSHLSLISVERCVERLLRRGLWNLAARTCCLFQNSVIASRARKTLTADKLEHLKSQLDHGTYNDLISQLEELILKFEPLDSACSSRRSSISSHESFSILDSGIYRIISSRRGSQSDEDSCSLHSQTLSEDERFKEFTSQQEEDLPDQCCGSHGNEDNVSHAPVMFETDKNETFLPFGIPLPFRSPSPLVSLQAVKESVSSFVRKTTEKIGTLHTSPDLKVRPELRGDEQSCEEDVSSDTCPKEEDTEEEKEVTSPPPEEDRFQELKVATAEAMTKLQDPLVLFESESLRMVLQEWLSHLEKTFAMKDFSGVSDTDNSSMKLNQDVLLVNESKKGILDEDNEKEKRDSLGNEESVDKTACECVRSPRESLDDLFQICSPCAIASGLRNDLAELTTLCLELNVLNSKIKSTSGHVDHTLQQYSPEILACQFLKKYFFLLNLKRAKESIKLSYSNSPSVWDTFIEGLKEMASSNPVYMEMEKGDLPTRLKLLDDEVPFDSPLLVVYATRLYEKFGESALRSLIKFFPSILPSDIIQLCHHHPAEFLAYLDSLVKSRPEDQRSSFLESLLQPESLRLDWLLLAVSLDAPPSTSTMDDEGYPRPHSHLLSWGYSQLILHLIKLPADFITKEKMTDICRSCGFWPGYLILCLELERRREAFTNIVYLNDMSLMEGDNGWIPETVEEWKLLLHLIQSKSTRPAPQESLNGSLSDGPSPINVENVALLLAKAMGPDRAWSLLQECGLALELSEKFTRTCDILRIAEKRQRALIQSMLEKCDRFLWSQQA
# UniProt Q86YM7: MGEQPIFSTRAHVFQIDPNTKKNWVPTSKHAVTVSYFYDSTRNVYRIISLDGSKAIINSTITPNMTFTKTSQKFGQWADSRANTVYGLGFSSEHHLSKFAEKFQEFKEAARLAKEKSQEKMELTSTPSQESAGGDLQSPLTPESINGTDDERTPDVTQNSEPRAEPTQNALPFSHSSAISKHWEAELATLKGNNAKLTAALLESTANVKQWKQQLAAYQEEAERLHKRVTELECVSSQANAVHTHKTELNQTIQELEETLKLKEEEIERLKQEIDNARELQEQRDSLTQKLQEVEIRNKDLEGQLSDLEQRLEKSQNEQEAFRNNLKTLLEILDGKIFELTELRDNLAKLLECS
# UniProt O60243: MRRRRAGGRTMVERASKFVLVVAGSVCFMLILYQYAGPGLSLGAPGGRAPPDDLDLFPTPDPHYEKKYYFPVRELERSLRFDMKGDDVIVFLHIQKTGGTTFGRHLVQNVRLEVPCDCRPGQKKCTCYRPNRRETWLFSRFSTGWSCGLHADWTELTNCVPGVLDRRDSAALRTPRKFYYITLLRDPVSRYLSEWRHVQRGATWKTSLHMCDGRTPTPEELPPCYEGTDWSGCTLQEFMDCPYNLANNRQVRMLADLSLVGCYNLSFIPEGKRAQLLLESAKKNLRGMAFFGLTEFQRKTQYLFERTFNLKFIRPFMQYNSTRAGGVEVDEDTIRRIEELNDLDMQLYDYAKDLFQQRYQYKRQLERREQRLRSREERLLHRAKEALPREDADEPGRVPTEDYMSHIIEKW
# UniProt Q5SSJ5: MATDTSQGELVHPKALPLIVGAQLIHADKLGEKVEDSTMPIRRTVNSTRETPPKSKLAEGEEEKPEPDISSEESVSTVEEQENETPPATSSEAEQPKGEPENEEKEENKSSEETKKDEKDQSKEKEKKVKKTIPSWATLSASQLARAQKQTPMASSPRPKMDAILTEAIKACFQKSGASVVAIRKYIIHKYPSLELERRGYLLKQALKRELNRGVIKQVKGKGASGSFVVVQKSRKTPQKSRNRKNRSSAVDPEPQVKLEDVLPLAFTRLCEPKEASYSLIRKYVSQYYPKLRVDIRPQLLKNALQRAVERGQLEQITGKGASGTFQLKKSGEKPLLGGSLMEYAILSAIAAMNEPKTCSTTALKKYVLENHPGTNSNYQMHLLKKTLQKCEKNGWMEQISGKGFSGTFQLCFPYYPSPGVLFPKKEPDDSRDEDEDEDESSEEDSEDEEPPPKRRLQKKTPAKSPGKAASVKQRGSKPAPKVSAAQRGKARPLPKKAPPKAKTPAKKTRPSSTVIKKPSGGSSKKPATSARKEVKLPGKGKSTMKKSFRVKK
# UniProt Q9BW72: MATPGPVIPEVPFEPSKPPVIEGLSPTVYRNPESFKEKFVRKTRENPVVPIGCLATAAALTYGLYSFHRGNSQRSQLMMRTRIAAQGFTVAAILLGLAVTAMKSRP
# The list shows a part of the results.
# Assays:
# Experiment in all cases: log2 fold change, soluble protein after heating vs DMSO (PISA); higher = thermal stabilisation; K562 lysate, 10 uM; active = over 0.2 and 3.5 SD of the protein, either way, in both replicates (recomputed)
# lapatinib = compound: CS(=O)(=O)CCNCc1ccc(-c2ccc3ncnc(Nc4ccc(OCc5cccc(F)c5)c(Cl)c4)c3c2)o1 [lapatinib]
# In short: (§1)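 The values are log-two fold changes in thermal stability compared with solvent controls and come from duplicates. They were obtained by TMTpro 16plex LC-MS/MS, with channel sums equalised, on the supernatant after 21,000xg for 90 min. That supernatant came from crude K562 extract at 1 mg/mL protein treated with 10 μM compound for 30 min, heated for 3 min across 48°C-58°C, pooled and brought to 0.5% NP-40 at 4°C.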
# pictilisib = compound: CS(=O)(=O)N1CCN(Cc2cc3nc(-c4cccc5[nH]ncc45)nc(N4CCOCC4)c3s2)CC1 [pictilisib]
# In short: as §1
# crizotinib = compound: C[C@@H](Oc1cc(-c2cnn(C3CCNCC3)c2)cnc1N)c1c(Cl)ccc(F)c1Cl [crizotinib]
# In short: as §1
# [1] = compound: C[C@H](C1=CC=C(C=C1)C(=O)NC2=C3C=CNC3=NC=C2)N
# In short: as §1
# duvelisib = compound: C[C@H](Nc1ncnc2nc[nH]c12)c1cc2cccc(Cl)c2c(=O)n1-c1ccccc1 [duvelisib]
# In short: as §1
# gandotinib = compound: Cc1cc(Nc2cc(CN3CCOCC3)c3nc(C)c(Cc4ccc(Cl)cc4F)n3n2)n[nH]1 [gandotinib]
# In short: as §1
# tozasertib = compound: Cc1cc(Nc2cc(N3CCN(C)CC3)nc(Sc3ccc(NC(=O)C4CC4)cc3)n2)n[nH]1 [tozasertib]
# In short: as §1
# doramapimod = compound: Cc1ccc(-n2nc(C(C)(C)C)cc2NC(=O)Nc2ccc(OCCN3CCOCC3)c3ccccc23)cc1 [doramapimod]
# In short: as §1
# bafetinib = compound: Cc1ccc(NC(=O)c2ccc(CN3CC[C@H](N(C)C)C3)c(C(F)(F)F)c2)cc1Nc1nccc(-c2cncnc2)n1 [bafetinib]
# In short: as §1
# [2] = compound: Cc1cccc(CC(=O)N2CCc3c2ccc(-c2cn(C)c4ncnc(N)c24)c3F)n1
# In short: as §1
# nilotinib = compound: Cc1cn(-c2cc(NC(=O)c3ccc(C)c(Nc4nccc(-c5cccnc5)n4)c3)cc(C(F)(F)F)c2)cn1 [nilotinib]
# In short: as §1
# [3] = compound: Cc1nc(Nc2n[nH]c3c2CN(C(=O)N[C@H](CN(C)C)c2ccccc2)C3(C)C)c2sccc2n1
# In short: as §1
# dasatinib = compound: Cc1nc(Nc2ncc(C(=O)Nc3c(C)cccc3Cl)s2)cc(N2CCN(CCO)CC2)n1 [dasatinib]
# In short: as §1
# [4] = compound: Cc1ncc(-c2ccnc(Nc3ccc(S(C)(=O)=O)cc3)n2)n1C(C)C
# In short: as §1
# [5] = compound: Cn1cc(-c2ccc3c(c2)CCN3C(=O)Cc2cccc(C(F)(F)F)c2)c2c(N)ncnc21
# In short: as §1
# quisinostat = compound: Cn1cc(CNCC2CCN(c3ncc(C(=O)NO)cn3)CC2)c2ccccc21 [quisinostat]
# In short: as §1
# tipifarnib = compound: Cn1cncc1[C@@](N)(c1ccc(Cl)cc1)c1ccc2c(c1)c(-c1cccc(Cl)c1)cc(=O)n2C [tipifarnib]
# In short: as §1
# [6] = compound: NC(=O)Nc1cc(-c2cccc(F)c2)sc1C(=O)N[C@H]1CCCNC1
# In short: as §1
# [7] = compound: NC(=O)c1cnc(N[C@@H]2CCCC[C@@H]2N)nc1Nc1cccc(-n2nccn2)c1
# In short: as §1
# [8] = compound: NC1(c2ccc(-c3nc4ccn5c(=O)[nH]nc5c4cc3-c3ccccc3)cc2)CCC1
# In short: as §1
Target,log2 fold change (lapatinib),log2 fold change (pictilisib),log2 fold change (crizotinib),log2 fold change [1],log2 fold change (duvelisib),log2 fold change (gandotinib),log2 fold change (tozasertib),log2 fold change (doramapimod),log2 fold change (bafetinib),log2 fold change [2],log2 fold change (nilotinib),log2 fold change [3],log2 fold change (dasatinib),log2 fold change [4],log2 fold change [5],log2 fold change (quisinostat),log2 fold change (tipifarnib),log2 fold change [6],log2 fold change [7],log2 fold change [8]
HIST2H2BF isoform 2 (UniProt Q5QNW6),inactive: -0.004,inactive: 0.023,inactive: -0.024,inactive: 0.014,inactive: -0.023,inactive: -0.018,inactive: 0.01,inactive: -0.025,inactive: -0.02,inactive: -0.054,inactive: 0,inactive: -0.07,inactive: -0.006,inactive: -0.069,inactive: -0.025,inactive: 0,inactive: 0.031,inactive: 0.022,inactive: -0.009,inactive: 0.003
HES1 (UniProt Q14469),inactive: -0.046,,,inactive: -0.211,inactive: -0.036,inactive: 0.122,inactive: -0.084,,,inactive: 0.092,inactive: -0.06,inactive: 0.007,inactive: -0.072,inactive: 0.227,inactive: 0.021,,inactive: 0.134,,inactive: 0.069,inactive: 0.046
HPS4 isoform 4 (UniProt Q9NQG7),inactive: -0.059,inactive: -0.21,inactive: -0.114,,inactive: 0.01,,inactive: 0.028,inactive: -0.018,inactive: 0.143,,,,inactive: 0.021,,inactive: -0.018,inactive: 0.012,,inactive: -0.051,inactive: 0.153,inactive: -0.042
HOMEZ isoform 3 (UniProt Q8IX15),inactive: -0.039,inactive: 0.029,inactive: 0.017,inactive: -0.246,inactive: 0.025,inactive: 0.033,inactive: -0.044,inactive: -0.089,inactive: -0.126,inactive: -0.126,inactive: -0.033,inactive: -0.032,inactive: -0.007,inactive: 0.306,inactive: -0.001,inactive: -0.005,inactive: 0.054,inactive: 0.037,inactive: -0.002,inactive: -0.048
HSCB (UniProt Q8IWL3),inactive: 0.011,inactive: -0.051,inactive: 0.015,inactive: -0.026,inactive: -0.007,inactive: 0.09,inactive: 0.136,inactive: -0.045,inactive: -0.117,inactive: 0.033,,,inactive: -0.009,,inactive: -0.016,inactive: 0.093,,inactive: 0.037,inactive: 0.035,inactive: 0.009
HIRA (UniProt P54198),inactive: -0.044,,inactive: -0.047,inactive: 0.074,inactive: -0.009,inactive: -0.017,inactive: 0.176,inactive: -0.039,,inactive: -0.021,inactive: 0.05,inactive: -0.065,inactive: -0.016,inactive: 0.103,inactive: -0.012,inactive: 0.002,inactive: -0.004,inactive: 0.016,inactive: -0.057,inactive: -0.017
HNRNPDL (UniProt O14979),inactive: 0.04,inactive: -0.002,inactive: -0.005,inactive: 0.016,inactive: 0.04,inactive: -0.025,inactive: -0.056,inactive: 0.104,inactive: 0.072,inactive: -0.035,inactive: -0.208,inactive: 0.036,inactive: 0.016,inactive: -0.018,inactive: -0.005,inactive: 0.074,inactive: -0.002,inactive: -0.062,inactive: -0.008,inactive: 0.004
HPRT1 (UniProt P00492),inactive: 0.013,inactive: 0,inactive: 0.04,inactive: -0.002,inactive: 0.011,inactive: 0.007,inactive: -0.007,inactive: 0.003,inactive: 0.059,inactive: -0.02,inactive: -0.027,inactive: 0.022,inactive: 0.02,inactive: -0.033,inactive: 0.004,inactive: 0.017,inactive: 0.046,inactive: -0.018,inactive: -0.001,inactive: 0.049
HRAS (UniProt P01112),inactive: -0.003,,inactive: 0.094,,inactive: -0.011,,inactive: 0.042,inactive: 0.029,,,inactive: 0.109,inactive: -0.144,inactive: 0.079,inactive: -0.139,inactive: -0.006,inactive: 0.07,inactive: 0.058,inactive: -0.029,inactive: 0.001,inactive: 0.073
HOMER3 (UniProt Q9NSC5),inactive: 0.091,active: 0.42,inactive: 0.021,inactive: 0.048,,inactive: 0.061,,inactive: 0.016,inactive: 0.234,inactive: -0.072,,,,,,inactive: -0.147,,inactive: 0.019,inactive: -0.023,
HMGN3 (UniProt Q15651),inactive: 0.082,inactive: 0.002,inactive: 0.014,inactive: -0.016,inactive: 0.051,inactive: 0.08,,inactive: -0.147,inactive: 0.026,inactive: -0.047,inactive: -0.254,inactive: 0.129,inactive: 0.122,inactive: 0.046,inactive: -0.101,inactive: -0.064,inactive: 0.102,inactive: -0.035,inactive: -0.061,inactive: -0.018
HPS5 (UniProt Q9UPZ3),inactive: -0.183,inactive: -0.05,inactive: -0.065,inactive: -0.377,inactive: 0.005,inactive: 0.295,,inactive: 0.097,inactive: -0.025,inactive: 0.473,inactive: -0.156,inactive: 0.262,inactive: -0.032,inactive: -0.214,inactive: -0.076,inactive: -0.035,inactive: 0.054,inactive: 0.046,inactive: -0.03,inactive: -0.043
HOOK3 (UniProt Q86VS8),inactive: 0.005,inactive: -0.03,inactive: 0.008,inactive: 0.004,inactive: -0.021,inactive: -0.018,inactive: 0.038,inactive: -0.019,inactive: -0.019,inactive: 0.027,inactive: -0.032,inactive: 0.03,inactive: -0.048,inactive: -0.022,inactive: -0.002,inactive: 0.008,inactive: -0.044,inactive: 0.001,inactive: 0.01,inactive: 0.013
HOMER1 (UniProt Q86YM7),inactive: -0.043,inactive: -0.039,inactive: 0.026,inactive: 0.072,inactive: -0.006,inactive: -0.002,inactive: -0.058,inactive: 0.024,inactive: 0.043,inactive: -0.069,inactive: 0.007,inactive: 0.003,inactive: 0.003,inactive: -0.022,inactive: 0,inactive: 0.049,inactive: -0.008,inactive: -0.035,inactive: -0.001,inactive: 0.014
HIST2H3A (UniProt Q71DI3),inactive: -0.032,inactive: -0.003,inactive: -0.003,inactive: -0.015,inactive: -0.056,inactive: 0.001,inactive: -0.02,inactive: 0.024,inactive: -0.046,inactive: -0.022,inactive: -0.006,inactive: -0.02,inactive: 0.025,inactive: -0.026,inactive: -0.023,inactive: -0.024,inactive: 0.024,inactive: -0.02,inactive: 0.017,inactive: 0.002
HS6ST1 (UniProt O60243),,,,,,,,,,,,,,,,,,,,inactive: -0.19
HP1BP3 isoform 5 (UniProt Q5SSJ5),,,,,,,,,,,,,,,,,,,,inactive: -0.02
HMGXB3 (UniProt Q12766),,,,,,,inactive: 0.081,,,,,,,,,,,,,
HIGD2A (UniProt Q9BW72),,,inactive: -0.208,inactive: -0.037,inactive: 0.035,inactive: 0.05,,inactive: -0.137,,inactive: -0.004,inactive: 0.22,inactive: -0.149,inactive: 0.138,inactive: -0.116,inactive: 0.028,inactive: -0.659,inactive: 0.003,inactive: 0.258,,

# Some values from above.
# HPRT1 (UniProt P00492) | log2 fold change [7]: inactive: -0.001
# HOMEZ isoform 3 (UniProt Q8IX15) | log2 fold change (lapatinib): inactive: -0.039
